# Assay results reported in patent US20240082341A1, “PEPTIDE FOR USE IN THE TREATMENT OR PREVENTION OF COVID-19” (Instytut Biochemii I Biofizyki Polskiej Akademii Nauk, priority 2020, published 2024).
# For at least one compound, name, drawing or mass did not settle the structure. Ends that are not written are not given here.
# Molecular target: RBD domain of the S1 subunit of viral S glycoprotein (Severe acute respiratory syndrome coronavirus 2, UniProt P0DTC2)
# Assay: Binding of the peptides to the RBD domain of viral S glycoprotein (microscale thermophoresis, MST)
# Parameters: species or system SARS-CoV-2
# Conditions: peptide-RBD complex, 25° C., cell unit μM, read-out: KD (nM) Tmeasurement 25° C.
substance,measurement,value
"LYGNYE [Peptide 33.5, LYGNYE]",Kd,> 1 µM
